Assay results reported in patent US9365502B2, “Neuroactive substituted cyclopenta[b]phenanthrenes as modulators for GABA type-A receptors” (priority 2013, dated 2016).

Legend:
Tadpole = Tadpole loss of righting (LRR) and loss of swimming (LSR) reflexes; assay type: in vivo; conditions: Hill coefficient; for Tadpole LRR nHill: loss of righting reflex; for Tadpole LSR nHill: loss of swimming reflex
Protocol: Table 3 discloses the anesthetic effects of the compounds of the present disclosure. In particular, the anesthetic effect of the compounds of the present disclosure on Loss of Righting Reflex (LRR) and Loss of Swimming Reflex (LSR).
Methods used are known in the art (see Jiang, X., et al.). Error limits are calculated as standard error of the mean (N=10 or more animals at each of five or more different concentrations).

[1] = system: picrotoxin binding site on GABAA receptors; assay: [35S]-TBPS displacement (inhibition of [35S]-TBPS binding); conditions: Hill coefficient, ± SEM
Protocol: The IC50 values for non-competitive displacers of [^35S]-TBPS from the picrotoxin binding site on GABAA receptors are reported in Table 1.
Results presented are from duplicate experiments performed in triplicate. Error limits are calculated as standard error of the mean. Methods used are known in the art (see Jiang, X., et al., Neurosteroid analogues. 9. Conformationally constrained pregnanes: structure-activity studies of 13,24-cyclo-18,21-dinorcholane analogues of the GABA modulatory and anesthetic steroids (3α,5α)- and […]. J. Med. Chem., 46: 5334-48 (2003)—the contents of which are hereby incorporated by reference in their entirety).

Row | Compound | Tadpole LRR nHill (Tadpole) | Tadpole LSR nHill (Tadpole) | Inhibition of [35S]-TBPS Binding nHill [1]
1 | C[C@]12CC(=O)CC1CC1C(CCC3C[C@H](O)CCC31)C2 (stereo partly shown) [MQ-48] | −2.10 ± 0.42 | −28.6 ± 0.0 | 0.60 ± 0.21
2 | C[C@@]12CC[C@H](O)C[C@H]1CC[C@@H]1C[C@@]3(C)C(CC[C@@H]3C#N)CC12 (stereo partly shown) [MQ-87] | −20.6 ± 0.6 | −149 ± 0.5 | 0.79 ± 0.07
3 | C[C@]12C[C@H]3CC[C@@H]4C[C@@H](O)CC[C@H]4[C@@H]3C[C@@H]1CC[C@@H]2[N+](=O)[O-] [MQ-33] | −2.65 ± 0.15 | −33.3 ± 0.1 | 0.92 ± 0.07
4 | C[C@@]12CC3CCC4C[C@H](O)CCC4C3CC1CC[C@]21CO1 (stereo partly shown) [MQ-54] | −16.3 ± 5.3 | −33.3 ± 0.1 | 5.28 ± 1.13
5 | C[C@@]12CC3CCC4C[C@H](O)CCC4C3CC1CC[C@H]2C#N (stereo partly shown) [MQ-49] | −1.71 ± 0.67 | −33.3 ± 0.1 | 1.04 ± 0.14
6 | C[C@@]12CC[C@H](O)C[C@@H]1CC[C@@H]1C[C@]3(C)C(=O)CCC3C[C@H]12 (stereo partly shown) [MQ-83] | −1.79 ± 0.47 | −33.3 ± 0.1 | 1.08 ± 0.13
7 | C[C@@]12CC[C@@H](O)C[C@@H]1CC[C@H]1C[C@@]3(C)[C@H](CC[C@@]34CO4)C[C@@H]12 [MQ-85] | −2.60 ± 0.55 | −33.3 ± 0.1 | 0.93 ± 0.16
8 | C[C@]12C[C@H]3CC[C@@H]4C[C@@H](O)CC[C@H]4[C@@H]3C[C@@H]1CC/C2=C/C#N [MQ-31] | −2.91 ± 1.16 | −16.9 ± 0.7 | 1.02 ± 0.06
9 | C[C@]12C[C@H]3CC[C@@H]4C[C@@H](O)CC[C@H]4[C@@H]3C[C@@H]1CC[C@@H]2C#N [MQ-38] | −4.88 ± 3.39 | −20.4 ± 0.5 | 1.06 ± 0.13
10 | C[C@@]12C[C@@H]3CC[C@@H]4C[C@H](O)CC[C@@H]4[C@H]3C[C@H]1CCC2=O [MQ-51] |  |  | 1.02 ± 0.13
11 | C[C@]12C[C@H]3CC[C@@H]4C[C@@H](O)CC[C@H]4[C@@H]3C[C@@H]1CC/C2=C\C#N [MQ-32] | −4.97 ± 5.92 | −21.1 ± 1.0 | 0.97 ± 0.05
12 | C[C@@]12CC[C@H](O)C[C@H]1CC[C@@H]1C[C@]3(C)C(C#N)=CCC3CC12 (stereo partly shown) [MQ-86] | −4.87 ± 2.93 | −33.3 ± 0.1 | 0.89 ± 0.05
13 | C[C@@]12CC3CC[C@H]4C[C@H](O)CCC4C3CC1CCC2=O (stereo partly shown) [MQ-47] | −4.87 ± 28.4 |  | 1.04 ± 0.29
14 | C[C@]12C[C@H]3CCC4C[C@@H](O)CC[C@H]4[C@@H]3C[C@@H]1CCC2=O (stereo partly shown) [MQ-36] | −1.57 ± 0.84 |  | 1.26 ± 0.09
15 | CC(=O)[C@H]1CCC2CC3C(CCC4C[C@H](O)CCC43)C[C@@]21C (stereo partly shown) [MQ-39] | −19.3 ± 0.7 | −16.1 ± 0.9 | 0.89 ± 0.08
16 | C[C@]12C[C@H]3CC[C@@H]4C[C@@H](O)CCC4C3CC1CC[C@@]21CO1 (stereo partly shown) [MQ-37] | −2.87 ± 0.06 | −33.3 ± 0.1 | 1.29 ± 0.12
17 | CC(=O)[C@@H]1CC[C@@H]2C[C@H]3[C@@H](CC[C@H]4C[C@H](O)CC[C@@H]43)C[C@]21C [MQ-50] | −1.30 ± 0.67 |  | 0.90 ± 0.15
